No signal at the amounts used counts as a negative. At least one verdict was read from the data and is not stated in words by the source.

Series [1] has as its target rZmCCA1b (Zea mays B73) (UniProt K7U156). Put plainly: EMSA. To be noted: 25 mM HEPES-KOH pH 7.5, 75 mM KCl, 2.5 mM DTT, 10% glycerol, 1.25 ng poly-dIdC; 20 fmol probe, 0.5-2 pmol protein; 10 min room temperature then 20 min on ice with probe; recombinant protein; protein details: MBP (pMAL-C2); label: 32P 5' ….
The target in series [2] is MBP (UniProt P0AEX9). Put plainly: EMSA. To be noted: 1 pmol protein; 25 mM HEPES-KOH pH 7.5, 75 mM KCl, 2.5 mM DTT, 10% glycerol, 1.25 ng poly-dIdC; 20 fmol probe, 0.5-2 pmol protein; 10 min room temperature then 20 min on ice with probe; recombinant protein; label: 32P 5' end.

On to “CTCTTTAAAAAAAAAGAGTCATTTAAGG (double strand) [ZmPRR59 M]”, for which the binding result in series [1] was “no binding”.
“GGCGAGTTTTAGATATTTTCACCCGCTCC (double strand) [ZmTOC1a promoter probe]”: the binding result in series [2] was “no binding”.
“GTCCGAGGCTAGGCTCGGGTGAAGCGTG (double strand) [gi1 N]”: the binding result in series [1] is recorded as “no binding”.
As to “GACCCCACCTAGCCGGTCTGTGTCTGTCC (double strand) [ZmTOC1a N]”, the binding result in series [1] is “no binding”.
The same measure, in the same setting: next, “GGGTCAGGCCGTCACGGGTCCAATGGAC (double strand) [ZmPRR59 N]”: “no binding”; “GGCGAGTTTTCCCCGCGATCACCCGCTCC (double strand) [ZmTOC1a M]”: “no binding”.
Consider “GCATCGCGGAAAAAAGAGTTTTCTCGCC (double strand) [gi1 M]”, for which the binding result in series [1] is recorded as “no binding”.

The record behind these values is publication PMC4965137.
